Results reported in patent publication US20070172933A1, “Thermally stable amidases” (priority 2003, published 2007).
At least one compound was matched to its structure with a doubt left.

System: amidase
Experiment: Substrate specificity of the isolated amidase (hydrolysis assay)
Type: biochemical, Pseudonocardia thermophila
Conditions: Aliphatic amides; 1 h at 50° C.
Method: To carry out the hydrolysis assay, where not mentioned otherwise, use was made of a 5 mM benzamide solution in 500 μl of a 60 mM K-Na phosphate buffer, pH 7.2. The enzymatic reaction proceeded for one hour at 70° C. with addition of 5 μg of the enzyme. The reaction was stopped by cooling the reaction solution on ice. […] One unit (U) of amidase activity is defined as the amount of enzyme which catalyzes the formation of 1 μmol of benzoic acid per minute.
The substrate specificity of the amidase was tested at three different temperatures taking into account the substrate used in each case. For hydrolysis of amino acid amides, the reaction mixture was reacted for 3 h at 30° C., in the case of the aliphatic and cyclic amides 1 h at 50° C., and for aromatic amide substrates 1 h at 70° C. The enzymatic activity was then determined as described above. The control used was each batch without enzyme.

C=CC(N)=O [acrylamide] was tested, and the Specific activity was 26.8 µmol/min/mg.
